For at least one compound, name, drawing or mass did not settle the structure.
How the values were obtained:
[1] = system: L-phenylalanine-dehydrogenase; assay: Batch reductive amination of α-ketocarboxylic acids with NADH regeneration by formate-dehydrogenase, product on aminoacid analyzer; type: biochemical, Brevibacterium species DSM 2448
Protocol: In order to regenerate the NADH consumed in the reductive amination there was added to the reaction mixture an excess of ammonium formate and the enzyme formate-dehydrogenase (E.C. 1.2.1.2) which in the oxidation of formate to CO2 reduces the cosubstrate NAD^+ to NADH.
The test mixture contained thereby uniformly 400 mM of ammonium formate (pH 8.5), 0.3 mM NADH, 0.6 U/ml formate-dehydrogenase (prepared according to Kroner et al (1982), J. Chem. Tech. Biotechnol, Volume 32, pages 130 to 137), 0.5 U/ml L-phenylalanine-dehydrogenase, 25 mM α-ketocarboxylic acid. The total volume was 3 ml. The incubation was carried out with stirring at 27° C. The product formation in each case was followed on the aminoacid analyzer.

[2] = system: L-phenylalanine-dehydrogenase; assay: Photometric test of reductive amination (decrease of NADH at 340 nm); settings: purified PheDH (0.055 mg protein/ml), pH 8.5, 0.2 mM NADH, 0.7M ammonium chloride
[3] = 25 mM α-ketocarboxylic acid, 0.5 U/ml enzyme, 27° C., 2 hours
[4] = 25 mM α-ketocarboxylic acid, 0.5 U/ml enzyme, 27° C., 6 hours

O=C(O)C(=O)Cc1c[nH]c2ccccc12 [Indolylpyruvate, Indolyl pyruvic acid]
Product Formation after 2 hours, % [1, 3]: 25%
Product Formation after 2 hours, mM [1, 3]: 6,2 mM
Product Formation after 6 hours, % [1, 4]: 48%
Product Formation after 6 hours, mM [1, 4]: 12,0 mM
Utilization as a substrate ([1]; result in words): converted well
Km [2]: 8 mM
Vmax [2]: 0.44 U/ml

From patent publication US4590161A, “Microbiologically produced L-phenylalanine-dehydrogenase, process for its recovery and use” (priority 1983, dated 1986)
